Laboratory results published in the supplement of paper PMC10849652.
The other results are listed elsewhere or left out.

Amino acid sequences for entries named in this document (tags omitted). A change or cut given only in a name is not applied to a line headed by its entry.
UniProt Q96BR5: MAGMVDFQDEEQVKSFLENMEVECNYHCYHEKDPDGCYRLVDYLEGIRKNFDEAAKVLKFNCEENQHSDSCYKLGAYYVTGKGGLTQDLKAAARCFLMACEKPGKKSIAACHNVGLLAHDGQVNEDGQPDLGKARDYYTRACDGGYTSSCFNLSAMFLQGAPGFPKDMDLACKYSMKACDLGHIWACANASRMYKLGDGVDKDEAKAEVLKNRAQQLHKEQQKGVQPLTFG
UniProt Q86YQ8: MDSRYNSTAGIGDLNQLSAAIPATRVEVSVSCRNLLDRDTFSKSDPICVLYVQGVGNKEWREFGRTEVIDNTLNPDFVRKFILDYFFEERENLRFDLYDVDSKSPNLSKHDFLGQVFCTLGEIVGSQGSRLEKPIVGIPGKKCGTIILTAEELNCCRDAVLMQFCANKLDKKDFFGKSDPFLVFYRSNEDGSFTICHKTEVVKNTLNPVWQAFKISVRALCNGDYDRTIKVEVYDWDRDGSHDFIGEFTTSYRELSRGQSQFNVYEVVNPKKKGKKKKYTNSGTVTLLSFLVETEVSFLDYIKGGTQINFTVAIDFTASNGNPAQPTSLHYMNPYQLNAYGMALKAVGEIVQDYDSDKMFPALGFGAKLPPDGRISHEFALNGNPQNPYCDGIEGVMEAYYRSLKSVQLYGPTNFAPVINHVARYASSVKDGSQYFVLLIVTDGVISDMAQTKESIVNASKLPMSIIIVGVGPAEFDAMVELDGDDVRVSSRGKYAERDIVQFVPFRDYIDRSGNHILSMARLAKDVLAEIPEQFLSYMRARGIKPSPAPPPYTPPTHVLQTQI
UniProt P24311, whole entry, looked up: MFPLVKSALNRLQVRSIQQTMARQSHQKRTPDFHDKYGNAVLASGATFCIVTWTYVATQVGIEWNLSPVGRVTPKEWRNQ
UniProt Q5TA50: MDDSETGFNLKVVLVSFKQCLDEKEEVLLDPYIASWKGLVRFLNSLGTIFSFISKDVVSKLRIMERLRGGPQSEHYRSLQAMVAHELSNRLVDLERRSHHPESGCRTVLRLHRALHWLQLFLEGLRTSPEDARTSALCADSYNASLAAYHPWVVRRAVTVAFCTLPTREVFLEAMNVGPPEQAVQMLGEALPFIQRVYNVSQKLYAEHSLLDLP
UniProt Q9BR76, whole entry, looked up: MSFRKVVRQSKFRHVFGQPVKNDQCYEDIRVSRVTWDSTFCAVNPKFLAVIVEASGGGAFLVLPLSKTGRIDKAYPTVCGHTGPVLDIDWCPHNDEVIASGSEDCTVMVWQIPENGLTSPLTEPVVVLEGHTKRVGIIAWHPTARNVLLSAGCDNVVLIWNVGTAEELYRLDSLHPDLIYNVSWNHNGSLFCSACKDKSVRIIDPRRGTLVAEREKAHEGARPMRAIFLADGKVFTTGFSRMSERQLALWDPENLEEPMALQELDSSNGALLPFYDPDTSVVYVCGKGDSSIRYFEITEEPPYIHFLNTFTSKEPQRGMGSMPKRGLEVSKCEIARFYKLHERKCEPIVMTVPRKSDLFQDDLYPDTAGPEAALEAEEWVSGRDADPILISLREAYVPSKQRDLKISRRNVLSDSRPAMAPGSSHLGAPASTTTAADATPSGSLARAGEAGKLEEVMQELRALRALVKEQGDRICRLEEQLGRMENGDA
UniProt O75208: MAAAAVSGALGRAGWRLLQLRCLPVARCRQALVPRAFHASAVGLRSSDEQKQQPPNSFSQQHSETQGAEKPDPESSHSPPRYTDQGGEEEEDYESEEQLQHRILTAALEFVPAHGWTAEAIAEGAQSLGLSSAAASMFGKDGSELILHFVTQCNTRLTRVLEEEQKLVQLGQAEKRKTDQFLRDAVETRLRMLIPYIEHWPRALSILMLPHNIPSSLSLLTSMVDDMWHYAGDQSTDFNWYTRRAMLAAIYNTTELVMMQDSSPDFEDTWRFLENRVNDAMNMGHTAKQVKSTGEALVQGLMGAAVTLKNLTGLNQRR
UniProt P09669, whole entry, looked up: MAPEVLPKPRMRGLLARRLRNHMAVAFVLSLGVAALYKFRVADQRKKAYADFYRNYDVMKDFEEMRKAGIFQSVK
UniProt P57737: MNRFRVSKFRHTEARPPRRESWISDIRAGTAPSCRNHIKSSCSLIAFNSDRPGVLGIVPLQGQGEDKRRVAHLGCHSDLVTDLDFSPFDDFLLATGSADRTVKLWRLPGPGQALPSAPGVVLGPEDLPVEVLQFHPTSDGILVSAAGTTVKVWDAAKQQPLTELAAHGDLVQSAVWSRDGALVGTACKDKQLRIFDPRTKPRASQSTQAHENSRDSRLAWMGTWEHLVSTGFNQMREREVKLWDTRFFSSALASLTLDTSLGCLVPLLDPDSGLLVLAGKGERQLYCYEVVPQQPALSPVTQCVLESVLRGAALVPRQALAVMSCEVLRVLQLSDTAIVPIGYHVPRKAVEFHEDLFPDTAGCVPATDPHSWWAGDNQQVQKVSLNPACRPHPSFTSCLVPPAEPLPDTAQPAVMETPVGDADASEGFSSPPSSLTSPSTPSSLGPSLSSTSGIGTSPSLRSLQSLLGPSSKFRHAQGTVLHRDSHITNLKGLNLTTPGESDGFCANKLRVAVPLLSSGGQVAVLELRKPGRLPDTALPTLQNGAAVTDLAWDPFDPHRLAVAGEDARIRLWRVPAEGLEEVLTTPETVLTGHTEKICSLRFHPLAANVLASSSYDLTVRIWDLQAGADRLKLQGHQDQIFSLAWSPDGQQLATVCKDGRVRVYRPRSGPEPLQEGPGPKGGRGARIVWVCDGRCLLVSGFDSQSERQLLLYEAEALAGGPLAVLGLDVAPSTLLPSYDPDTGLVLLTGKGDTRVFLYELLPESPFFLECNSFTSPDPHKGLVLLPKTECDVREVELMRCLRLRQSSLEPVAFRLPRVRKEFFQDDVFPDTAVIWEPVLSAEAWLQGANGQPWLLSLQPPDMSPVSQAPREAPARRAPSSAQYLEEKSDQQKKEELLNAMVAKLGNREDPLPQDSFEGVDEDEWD
UniProt Q8N668, whole entry, looked up: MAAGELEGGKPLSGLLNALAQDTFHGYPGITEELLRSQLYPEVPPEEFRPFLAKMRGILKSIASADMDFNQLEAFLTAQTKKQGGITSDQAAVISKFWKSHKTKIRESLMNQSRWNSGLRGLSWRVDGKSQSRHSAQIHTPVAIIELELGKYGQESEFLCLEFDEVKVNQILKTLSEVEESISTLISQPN
UniProt G9CGD6: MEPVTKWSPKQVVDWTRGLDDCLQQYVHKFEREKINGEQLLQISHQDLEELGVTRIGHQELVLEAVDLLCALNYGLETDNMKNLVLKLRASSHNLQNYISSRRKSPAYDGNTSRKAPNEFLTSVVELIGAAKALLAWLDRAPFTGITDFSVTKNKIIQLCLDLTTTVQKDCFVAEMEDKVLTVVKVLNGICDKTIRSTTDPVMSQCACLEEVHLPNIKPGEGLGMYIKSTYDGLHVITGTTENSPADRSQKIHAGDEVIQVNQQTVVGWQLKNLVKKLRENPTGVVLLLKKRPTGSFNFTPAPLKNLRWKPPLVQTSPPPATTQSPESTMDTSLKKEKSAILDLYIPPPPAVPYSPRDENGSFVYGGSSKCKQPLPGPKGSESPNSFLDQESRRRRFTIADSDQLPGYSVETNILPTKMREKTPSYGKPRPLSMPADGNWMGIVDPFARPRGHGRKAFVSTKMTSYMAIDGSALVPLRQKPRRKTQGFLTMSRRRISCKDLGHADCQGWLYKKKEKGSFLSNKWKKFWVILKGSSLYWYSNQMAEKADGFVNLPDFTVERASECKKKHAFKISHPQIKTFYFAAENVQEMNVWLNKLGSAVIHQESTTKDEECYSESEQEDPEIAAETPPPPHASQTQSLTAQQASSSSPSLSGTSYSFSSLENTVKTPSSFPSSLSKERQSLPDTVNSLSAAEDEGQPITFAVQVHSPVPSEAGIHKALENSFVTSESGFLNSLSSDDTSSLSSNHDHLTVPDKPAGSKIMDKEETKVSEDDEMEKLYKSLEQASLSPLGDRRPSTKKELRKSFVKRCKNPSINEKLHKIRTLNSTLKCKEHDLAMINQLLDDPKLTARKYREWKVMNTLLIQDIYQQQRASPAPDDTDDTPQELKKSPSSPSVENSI
UniProt Q9UP83: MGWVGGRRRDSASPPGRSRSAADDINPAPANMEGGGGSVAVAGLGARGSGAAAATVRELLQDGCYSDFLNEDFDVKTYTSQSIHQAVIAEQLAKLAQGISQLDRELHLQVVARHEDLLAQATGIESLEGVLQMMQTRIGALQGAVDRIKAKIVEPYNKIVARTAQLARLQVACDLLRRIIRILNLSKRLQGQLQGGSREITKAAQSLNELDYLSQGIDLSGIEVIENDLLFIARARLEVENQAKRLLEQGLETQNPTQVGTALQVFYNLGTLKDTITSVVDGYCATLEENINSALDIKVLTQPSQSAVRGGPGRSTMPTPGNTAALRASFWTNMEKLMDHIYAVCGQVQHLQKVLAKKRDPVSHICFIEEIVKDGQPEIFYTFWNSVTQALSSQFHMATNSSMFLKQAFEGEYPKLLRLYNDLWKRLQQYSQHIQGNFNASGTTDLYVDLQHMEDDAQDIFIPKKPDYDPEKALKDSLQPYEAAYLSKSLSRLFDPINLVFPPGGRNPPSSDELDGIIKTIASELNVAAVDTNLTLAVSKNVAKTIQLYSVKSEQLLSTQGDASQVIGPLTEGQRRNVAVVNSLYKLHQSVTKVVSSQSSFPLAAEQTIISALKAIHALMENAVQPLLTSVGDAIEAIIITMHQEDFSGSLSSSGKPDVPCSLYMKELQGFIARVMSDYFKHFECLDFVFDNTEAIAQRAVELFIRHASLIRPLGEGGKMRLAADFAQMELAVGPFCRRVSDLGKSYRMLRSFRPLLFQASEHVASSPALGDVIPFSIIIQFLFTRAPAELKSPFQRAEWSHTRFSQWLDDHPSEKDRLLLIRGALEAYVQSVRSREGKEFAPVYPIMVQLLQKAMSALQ
UniProt P23786: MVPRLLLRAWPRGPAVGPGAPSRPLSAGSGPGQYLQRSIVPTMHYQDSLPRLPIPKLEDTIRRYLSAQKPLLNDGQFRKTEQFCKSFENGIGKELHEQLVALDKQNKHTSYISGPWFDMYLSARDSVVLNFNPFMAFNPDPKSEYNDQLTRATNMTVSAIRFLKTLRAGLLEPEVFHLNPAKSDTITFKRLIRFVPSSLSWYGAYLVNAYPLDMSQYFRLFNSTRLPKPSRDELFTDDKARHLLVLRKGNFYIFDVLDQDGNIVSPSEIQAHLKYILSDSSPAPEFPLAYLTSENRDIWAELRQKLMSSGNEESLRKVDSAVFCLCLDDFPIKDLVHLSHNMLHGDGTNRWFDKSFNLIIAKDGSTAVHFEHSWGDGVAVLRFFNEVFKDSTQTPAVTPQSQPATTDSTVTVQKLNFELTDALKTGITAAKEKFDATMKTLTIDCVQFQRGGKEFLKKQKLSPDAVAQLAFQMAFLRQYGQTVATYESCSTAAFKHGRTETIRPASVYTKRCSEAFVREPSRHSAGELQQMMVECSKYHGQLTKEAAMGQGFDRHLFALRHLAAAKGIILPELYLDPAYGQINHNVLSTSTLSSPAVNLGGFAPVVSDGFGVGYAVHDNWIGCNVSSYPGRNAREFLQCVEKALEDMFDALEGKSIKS
UniProt A4D0V7: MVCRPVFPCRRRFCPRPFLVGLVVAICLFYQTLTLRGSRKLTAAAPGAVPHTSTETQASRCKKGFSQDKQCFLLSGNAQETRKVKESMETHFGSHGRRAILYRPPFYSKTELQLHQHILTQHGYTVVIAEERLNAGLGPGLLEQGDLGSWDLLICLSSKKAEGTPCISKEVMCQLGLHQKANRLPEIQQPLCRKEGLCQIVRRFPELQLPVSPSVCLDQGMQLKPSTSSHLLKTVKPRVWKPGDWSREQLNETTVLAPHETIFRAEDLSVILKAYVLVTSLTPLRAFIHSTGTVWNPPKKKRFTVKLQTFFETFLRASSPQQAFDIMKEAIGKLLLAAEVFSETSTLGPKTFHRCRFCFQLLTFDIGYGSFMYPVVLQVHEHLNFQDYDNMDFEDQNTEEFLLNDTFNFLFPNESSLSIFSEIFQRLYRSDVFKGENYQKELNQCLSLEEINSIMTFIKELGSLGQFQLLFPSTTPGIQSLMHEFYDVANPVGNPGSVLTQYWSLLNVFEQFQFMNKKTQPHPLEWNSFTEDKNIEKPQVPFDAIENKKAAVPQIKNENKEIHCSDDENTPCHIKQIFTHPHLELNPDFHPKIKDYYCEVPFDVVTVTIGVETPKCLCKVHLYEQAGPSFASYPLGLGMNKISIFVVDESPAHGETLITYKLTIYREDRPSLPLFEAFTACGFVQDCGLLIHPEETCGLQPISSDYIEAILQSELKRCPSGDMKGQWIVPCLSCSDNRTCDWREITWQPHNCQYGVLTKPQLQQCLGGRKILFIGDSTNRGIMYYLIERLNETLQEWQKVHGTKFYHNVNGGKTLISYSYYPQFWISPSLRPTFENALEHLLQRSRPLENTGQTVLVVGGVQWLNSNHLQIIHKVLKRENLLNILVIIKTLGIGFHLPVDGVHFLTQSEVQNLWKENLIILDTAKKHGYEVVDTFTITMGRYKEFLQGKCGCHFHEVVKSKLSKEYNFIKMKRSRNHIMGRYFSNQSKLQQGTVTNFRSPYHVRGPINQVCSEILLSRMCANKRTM
UniProt Q14061: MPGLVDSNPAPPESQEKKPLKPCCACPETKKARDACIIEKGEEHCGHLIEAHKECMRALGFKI

compound: CC1=C2C(=CC=C1)N=C(N(C2=O)C3=CC=CC=C3C)CN4C=NC5=C(N=CN=C54)N; assay: log2 fold change, soluble protein after heating vs DMSO (PISA); higher = thermal stabilisation; K562 lysate, 10 uM; active = over 0.2 and 3.5 SD of the protein, either way, in both replicates (recomputed)
Summary of the method: (§1)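 Pellets of K562 cells were dounce-homogenised in PBS pH 7.4 with 1 mM MgCl2, and the crude extract was held at 1 mg/mL protein for a 30 min treatment with 10 μM compound. Aliquots were heated for 3 min over 48°C-58°C and pooled before NP-40 was added to 0.5% at 4°C. The supernatant from 21,000xg for 90 min was quantified by TMTpro 16plex LC-MS/MS with channel sums equalised. Values are reported from duplicates as log-two fold change in thermal stability relative to solvent controls.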

Row | Target | log2 fold change
1 | COA7 (UniProt Q96BR5) | inactive: -0.013
2 | CPNE8 (UniProt Q86YQ8) | inactive: 0.03
3 | CNTN4 (UniProt Q8IWV2) | inactive: 0.105
4 | COQ3 (UniProt Q9NZJ6) | inactive: -0.078
5 | CNNM1 (UniProt Q9NRU3) | inactive: 0.003
6 | COX7B (UniProt P24311) | inactive: -0.031
7 | COPS3 isoform 2 (UniProt Q9UNS2) | inactive: -0.052
8 | CPTP (UniProt Q5TA50) | inactive: -0.098
9 | CPLX1 (UniProt O14810) | inactive: -0.08
10 | COL12A1 (UniProt Q99715) | inactive: 0.08
11 | CORO1B (UniProt Q9BR76) | inactive: 0.016
12 | COQ9 (UniProt O75208) | inactive: 0.026
13 | COX7A2 (UniProt P14406) | inactive: 0.029
14 | COX6C (UniProt P09669) | inactive: -0.011
15 | CORO7 (UniProt P57737) | inactive: 0.18
16 | COMMD1 (UniProt Q8N668) | inactive: -0.048
17 | CNK3/IPCEF1 isoform 2 (UniProt G9CGD6) | inactive: -0.032
18 | COG5 isoform 2 (UniProt Q9UP83) | inactive: -0.042
19 | CPT2 (UniProt P23786) | inactive: -0.007
20 | CPNE1 (UniProt Q99829) | inactive: -0.009
21 | CPED1 (UniProt A4D0V7) | inactive: 0.053
22 | CPD (UniProt O75976) | inactive: 0.016
23 | CNNM2 (UniProt Q9H8M5) | inactive: 0.041

compound: Cc1sc2c(c1C)C(c1ccc(Cl)cc1)=N[C@@H](CC(=O)OC(C)(C)C)c1nnc(C)n1-2; assay: as above
Summary of the method: as §1

Row | Target | log2 fold change
24 | COA7 (UniProt Q96BR5) | inactive: -0.001
25 | CPNE8 (UniProt Q86YQ8) | inactive: -0.149
26 | CNTROB isoform 2 (UniProt Q8N137) | inactive: 0.08
27 | COP1 (UniProt Q8NHY2) | inactive: 0.021
28 | CRACR2B (UniProt Q8N4Y2) | inactive: 0.057
29 | COMMD3-BMI1 (UniProt R4GMX3) | inactive: -0.126
30 | CNNM1 (UniProt Q9NRU3) | inactive: 0.076
31 | COX7B (UniProt P24311) | inactive: -0.027
32 | CPTP (UniProt Q5TA50) | inactive: -0.162
33 | CPLX1 (UniProt O14810) | inactive: -0.239
34 | COL12A1 (UniProt Q99715) | inactive: -0.078
35 | CORO1B (UniProt Q9BR76) | inactive: 0.017
36 | COQ9 (UniProt O75208) | inactive: 0.015
37 | COMMD6 isoform 2 (UniProt Q7Z4G1) | inactive: 0.165
38 | COPS2 (UniProt P61201) | inactive: -0.039
39 | CPNE2 (UniProt Q96FN4) | inactive: -0.028
40 | COX6C (UniProt P09669) | inactive: -0.009
41 | CORO7 (UniProt P57737) | inactive: 0.165
42 | COMMD1 (UniProt Q8N668) | inactive: 0.008
43 | CNK3/IPCEF1 isoform 2 (UniProt G9CGD6) | inactive: 0
44 | COL6A3 (UniProt P12111) | inactive: -0.079
45 | COG5 isoform 2 (UniProt Q9UP83) | inactive: -0.003
46 | CPT2 (UniProt P23786) | inactive: 0.011
47 | CPNE1 (UniProt Q99829) | inactive: -0.043
48 | CPED1 (UniProt A4D0V7) | inactive: 0.058
49 | CPD (UniProt O75976) | inactive: -0.074
50 | CNNM2 (UniProt Q9H8M5) | inactive: 0.034
51 | COX10 (UniProt Q12887) | inactive: -0.169

compound: c1ccc([C@@H]2C[C@H]2NC2CCNCC2)cc1; assay: as above
Summary of the method: as §1

Row | Target | log2 fold change
52 | COA7 (UniProt Q96BR5) | inactive: -0.045
53 | COL1A1 (UniProt P02452) | inactive: 0.145
54 | CPNE8 (UniProt Q86YQ8) | inactive: 0.053
55 | CNTN4 (UniProt Q8IWV2) | inactive: -0.319
56 | COL6A1 (UniProt P12109) | inactive: -0.014
57 | COP1 (UniProt Q8NHY2) | inactive: 0.128
58 | COQ3 (UniProt Q9NZJ6) | inactive: -0.048
59 | COX7B (UniProt P24311) | inactive: -0.075
60 | COPS3 isoform 2 (UniProt Q9UNS2) | inactive: -0.699
61 | CPTP (UniProt Q5TA50) | inactive: 0.146
62 | CORO1B (UniProt Q9BR76) | inactive: 0
63 | COQ9 (UniProt O75208) | inactive: 0.08
64 | COX7A2 (UniProt P14406) | inactive: -0.016
65 | COMMD6 isoform 2 (UniProt Q7Z4G1) | inactive: 0.061
66 | COPS2 (UniProt P61201) | inactive: 0.013
67 | CORO6 isoform 5 (UniProt Q6QEF8) | inactive: 0.199

Row | Target | log2 fold change
68 | CPNE2 (UniProt Q96FN4) | inactive: -0.035
69 | COX6C (UniProt P09669) | inactive: -0.041
70 | CORO7 (UniProt P57737) | inactive: 0.164
71 | CNOT7 (UniProt H0YBT3) | inactive: 0.122
72 | COMMD1 (UniProt Q8N668) | inactive: -0.082
73 | CNK3/IPCEF1 isoform 2 (UniProt G9CGD6) | inactive: -0.817
74 | COL6A3 (UniProt P12111) | inactive: 0.13
75 | COG5 isoform 2 (UniProt Q9UP83) | inactive: 0.033
76 | CPT2 (UniProt P23786) | inactive: -0.047
77 | COX17 (UniProt Q14061) | inactive: 0.122
78 | COQ8B (UniProt Q96D53) | inactive: 0.147
79 | CPA4 (UniProt Q9UI42) | inactive: -0.042
80 | CPNE1 (UniProt Q99829) | inactive: -0.013
81 | CPED1 (UniProt A4D0V7) | inactive: 0.052
82 | CPD (UniProt O75976) | inactive: -0.102
83 | CNNM2 (UniProt Q9H8M5) | inactive: 0.014
